Results are given in words; binding and its absence hold for the method and conditions named. Binding seen in cells or lysates may run through a third protein. Here binding means that the protein was enriched with, or labelled near, the bait; the list need not be complete. Sequences can lack the tags named with a protein.
T1: PepNMsm (aminopeptidase PepN of Mycobacterium smegmatis mc2155, MSMEG_4690) (Mycobacterium smegmatis mc2155 (endogenous in Msm lysate)) (UniProt A0R1B3)
T1 sequence: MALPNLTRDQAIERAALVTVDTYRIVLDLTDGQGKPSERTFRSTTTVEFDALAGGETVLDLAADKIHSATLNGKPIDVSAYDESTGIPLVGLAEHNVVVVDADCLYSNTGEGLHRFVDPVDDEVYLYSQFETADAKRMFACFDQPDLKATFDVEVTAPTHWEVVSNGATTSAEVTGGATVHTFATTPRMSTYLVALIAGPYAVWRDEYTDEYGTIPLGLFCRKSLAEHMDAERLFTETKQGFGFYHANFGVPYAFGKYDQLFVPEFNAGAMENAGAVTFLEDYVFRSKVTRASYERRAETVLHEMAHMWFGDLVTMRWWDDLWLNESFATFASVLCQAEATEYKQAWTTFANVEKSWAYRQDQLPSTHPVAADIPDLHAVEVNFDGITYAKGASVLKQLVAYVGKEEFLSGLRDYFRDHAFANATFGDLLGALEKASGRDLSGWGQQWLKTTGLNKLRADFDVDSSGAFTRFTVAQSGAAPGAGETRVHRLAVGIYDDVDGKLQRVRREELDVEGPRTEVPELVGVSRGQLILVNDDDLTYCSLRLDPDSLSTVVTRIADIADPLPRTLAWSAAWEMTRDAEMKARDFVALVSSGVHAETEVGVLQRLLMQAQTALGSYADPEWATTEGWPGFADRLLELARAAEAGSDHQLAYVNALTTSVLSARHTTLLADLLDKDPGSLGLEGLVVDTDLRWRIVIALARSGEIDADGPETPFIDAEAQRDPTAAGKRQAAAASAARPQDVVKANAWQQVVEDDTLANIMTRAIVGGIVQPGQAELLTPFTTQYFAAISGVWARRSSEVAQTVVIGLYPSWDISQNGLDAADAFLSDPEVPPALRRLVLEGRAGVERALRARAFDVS

Chains of the proteins cited; added tags and fusions are not shown. Lines headed by an entry give the natural chain unless they say otherwise; changes in a name come on top.
UniProt A0QZ49: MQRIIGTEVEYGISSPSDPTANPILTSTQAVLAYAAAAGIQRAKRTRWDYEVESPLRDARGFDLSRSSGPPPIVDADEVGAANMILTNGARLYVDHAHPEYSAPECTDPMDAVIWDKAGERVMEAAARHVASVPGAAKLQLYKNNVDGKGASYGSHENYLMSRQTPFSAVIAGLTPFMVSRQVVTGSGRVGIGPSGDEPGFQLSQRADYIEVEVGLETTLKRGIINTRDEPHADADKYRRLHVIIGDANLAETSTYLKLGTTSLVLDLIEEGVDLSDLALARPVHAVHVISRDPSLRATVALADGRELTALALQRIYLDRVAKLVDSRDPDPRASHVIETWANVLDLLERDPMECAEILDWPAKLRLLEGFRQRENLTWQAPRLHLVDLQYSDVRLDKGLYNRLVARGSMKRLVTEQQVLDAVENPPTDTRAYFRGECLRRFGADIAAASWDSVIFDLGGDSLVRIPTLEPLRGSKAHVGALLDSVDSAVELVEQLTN
UniProt A0QSH7: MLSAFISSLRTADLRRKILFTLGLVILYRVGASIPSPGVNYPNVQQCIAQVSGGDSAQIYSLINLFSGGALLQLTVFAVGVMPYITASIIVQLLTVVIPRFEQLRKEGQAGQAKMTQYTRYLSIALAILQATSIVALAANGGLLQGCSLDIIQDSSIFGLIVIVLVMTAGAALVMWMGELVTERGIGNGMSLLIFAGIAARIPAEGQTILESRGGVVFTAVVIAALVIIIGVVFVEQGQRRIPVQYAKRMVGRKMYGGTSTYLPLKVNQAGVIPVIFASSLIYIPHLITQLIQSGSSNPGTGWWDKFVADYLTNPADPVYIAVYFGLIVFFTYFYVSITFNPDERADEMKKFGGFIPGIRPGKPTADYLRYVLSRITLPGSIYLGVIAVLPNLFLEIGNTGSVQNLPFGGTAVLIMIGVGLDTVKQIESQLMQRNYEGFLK
UniProt A0R199: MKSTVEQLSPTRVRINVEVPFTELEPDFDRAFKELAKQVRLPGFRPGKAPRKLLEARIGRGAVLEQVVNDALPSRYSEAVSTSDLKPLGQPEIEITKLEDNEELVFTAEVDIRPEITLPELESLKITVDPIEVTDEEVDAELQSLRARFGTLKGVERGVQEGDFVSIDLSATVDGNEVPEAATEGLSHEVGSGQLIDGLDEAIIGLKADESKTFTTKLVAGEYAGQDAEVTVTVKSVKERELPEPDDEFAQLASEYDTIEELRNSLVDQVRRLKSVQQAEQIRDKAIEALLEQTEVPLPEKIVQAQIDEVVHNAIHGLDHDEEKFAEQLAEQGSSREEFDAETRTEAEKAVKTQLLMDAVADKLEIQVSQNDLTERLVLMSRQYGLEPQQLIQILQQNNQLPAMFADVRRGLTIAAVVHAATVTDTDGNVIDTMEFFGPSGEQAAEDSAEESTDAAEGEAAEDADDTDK


How the values were obtained:
[1] = target: T1, PepNMsm (aminopeptidase PepN of Mycobacterium smegmatis mc2155, MSMEG_4690) (Mycobacterium smegmatis mc2155 (endogenous in Msm lysate)); assay: affinity purification with mass spectrometry; 1 mg wild-type Msm lysate incubated with 100 ug purified anti-PepN antibody for 16 h at 4°C, Protein G magnetic beads 2 h at 4°C, washed in 1X TBST, eluted in 7.5 M urea, Nano-LC Q-Exactive Plus MS; proteins found with beads alone or pre-immune sera subtracted
[2] = target: T1, PepNMsm (aminopeptidase PepN of Mycobacterium smegmatis mc2155, MSMEG_4690) (Mycobacterium smegmatis mc2155 (endogenous in Msm lysate)); assay: affinity purification with mass spectrom
[3] = target: T1, PepNMsm (aminopeptidase PepN of Mycobacterium smegmatis mc2155, MSMEG_4690) (Mycobacterium smegmatis mc2155 (endogenous in Msm lysate)); assay: affinity purification with mass spectrom; remark: listed apart in the source

Row | Molecule | binding [2] | binding [3] | other results
1 | Pup deamidase/depupylase (from UniProt A0QZ49 1-498) (enzyme) | – | – | binding [1]: binds
2 | SecY (from UniProt A0QSH7) | binds | – | –
3 | Tat pathway signal sequence domain protein | binds | – | –
4 | Trigger factor (from UniProt A0R199 1-469) | binds | – | –
5 | proteasomal core subunit beta (enzyme) | – | – | binding [1]: binds
6 | DNA polymerase III γ-subunit (enzyme, UniProt A0R5R6 1-665) MALYRKYRPATFSEVVGQEHVTEPLCTALTAGRINHAYLFSGPRGCGKTSSARILARSLNCDQGPTPTPCGVCDSCVALAPNGPGNVDVVELDAASHGGVDDTRELRDRAFYAPAQSRYRIFIVDEAHMVTTAGFNALLKIVEEPPDHLIFVFATTEPEKVLPTIRSRTHHYPFRLLAPRTMRPLLERICAEENVEVDDAVYPLVIRAGGGSPRDTLSVLDQLLAGSEQGANGNHITYQRALSLLGATDLALIDDAVEALAANDAAALFGAVEAVVDAGHDPRRFATDLLERFRDLIVLQAVPDAVTRGVVDAPTDVLERMREQAERLGAGTLTRYAEVVHAGLGEMRGATAPRLLLEVMCARLLLPSAADTESALLQRIERIETRLDMSIPAGEASSGVAPAEPAKQFVRRSQAAAASPPAAEPAPATPPTPAAPPTPAAPPAPAVAAPPAPAPAPQAPRPEPPVARPAPEPPPRPAPEPVAPPPPAAPVPAAAPAAPAPAAETGSVPGQPNAAAVRSMWSTVREKVRQRSRTTEVMLSGAIVRAVEGDTLVLSHESAPLAKRLTESRNSEVIREALKDALGVNWKVRCVTGAPEAAVAAPPAATGGAAPQAPAPDPVEIARAEEDDMLAEAAAEPSESMPRRDPEEVALELLQNELGARRIDG | – | binds | –
7 | Ribonuclease E (enzyme, UniProt A0R152 1-1037) MAEDAHTEDLSTQTPQQEGLPERLRVHSLARVLGTTSRRVLDALAEFDGRQRSAHSTVDKADAERVRAALTESPAAETPPEEAPAAETPVADLVVVQAEQVEVVTVSEAGPAEPAEPAEPEAPAAEAEAEAETEVADEAETPEPTFRGAVLVGDEPESRLILEHANIPPARETQTERPDYLPLFVAPQPVSFEPAVVDDEDEDDDTETGAESDFDSGADSDSDDDQADRPRRRRRGRRGRGRGRGEQNDDATSDADTDSTEDQTDGDEQESGEDSDDSGDEDSTTTEGGTRRRRRRRRRKSGSGDSDDAVSPDDPPNTVVHERAPRTERSDKSDDSEIQGISGSTRLEAKRQRRRDGRDAGRRRPPILSEAEFLARREAVERTMIVRDKVRTEPPHEGARYTQIAVLEDGVVVEHFVTSAASASLVGNIYLGIVQNVLPSMEAAFVDIGRGRNGVLYAGEVNWEAAGLGGQNRKIEQALKPGDYVVVQVSKDPVGHKGARLTTQVSLAGRYLVYVPGASSTGISRKLPDTERQRLKEILREVVPSDAGVIIRTASEGVKEEDIRSDVERLQKRWSEIEAKAAEVTEKKAGAAVALYEEPDVLVKVIRDLFNEDFSSLIVSGDEAWNTINSYVEAVAPDLMPRLTKYEPAGPDAPDVFAVHRIDEQLAKAMDRKVWLPSGGTLVIDRTEAMTVVDVNTGKFTGSGGNLEQTVTRNNLEAAEEIVRQLRLRDIGGIVVIDFIDMVLESNRDLVLRRLTEALARDRTRHQVSEVTSLGLVQLTRKRLGTGLVEAFSTACTHCGGRGIVLHGDPIDSASSNGGRKSDSSGGGGSGGGRRGKRGKKGAARTEEVHVAKVPDHTPGEHPMFKAMAAANGKHEGDEDHEDHEDHETAEDTTAAEVRDDTRDEHDADERAHVVTAAVGAAGDEDLDDSDEDSDLDSDEESDDESDEDEIELDDDEDELDEDIEVIGDSDDSDDSDDSDEDDDSDDSDDDSDEDEDSDSDEDEEPVREVYEPPVTAPRARVRRRAAARPAGPPSHD | – | binds | –
8 | SecA2 (protein, UniProt A0QYG9 1-784) MPKTSSAKPGRLSSKFWKLLGASTERNQARSLSEVKGAADFEKKAADLDDEQLTKAAKLLKLEDLAGASDITQFLAIAREAAERTTGLRPFDVQLLAALRMLAGDVVEMATGEGKTLAGAIAAAGYALGGRRVHVITINDYLARRDAEWMGPLLKALGLTVGWITADSTADERREAYQCDVTYASVNEIGFDVLRDQLVTDVADLVSPNPDVALIDEADSVLVDEALVPLVLAGTSHREQPRVEIIRMVGELEAGKHYDTDAESRNVHLTEAGARVMEAKLGGIDLYSEEHVGTTLTEINVALHAHVLLQRDVHYIVRDDAVHLINASRGRIASLQRWPDGLQAAVEAKEGIETTETGEVLDTITVQALINRYPRVCGMTGTALAAGEQLRQFYKLGVSPIPPNTPNIRKDEPDRVYITAAAKIDAIVEHIAEVHKTGQPVLVGTHDVAESEELHEKLLKAGVPAVVLNAKNDAEEAAVIAEAGKLGAVTVSTQMAGRGTDIRLGGSDVGDDDAEKKKVAELGGLHVVGTGRHHTERLDNQLRGRAGRQGDPGSSVFFSSWEDDVVAAHLERSKLPMETDPDAGDGRIIAPRAASLLDHAQRVAEGRLLDVHANTWRYNQLIAQQRAIIVERRETLLRTDTAREELKERSPERYAKLAEELGEDAEERLEKICRLIMLYHLDRGWCEHLAFLADIRESIHLRALGRQNPLDEFHRMAVDAFASLAADAIEAAQQTFETAESVADEPGVDLSKLARPTSTWTYMVHDNPLADDTMSALSLPGVFR | – | binds | –
9 | signal peptidase 1 (enzyme, UniProt A0QV43 1-289) MTGSTDSTDASSEDALDHDSAGDSAANPADEPQSRPDPEQDEKPKRKHGALREGAILVTIAVVLYYVMLTFIARPYLIPSESMEPTLHGCNGCVGDRIMVDKLTYRFTEPRPGDVVVFKGPPSWNIGYKSIRSDNPVIRGVQNALSFIGFVPPDENDLVKRVIAVGGQTVECRAATGLTVDGKKLDEPYLDPTTMMADPAIYPCLGNEFGPVTVPEDRIWVMGDNRTHSADSRVHCTNLPADAQKGLLCTGDPTAGTIPVENVIGKARFIAWPPSRWGGISDVNPQTSS | – | binds | –

— article PMC6457555
